Microarray screen: hit calls

Targets, with sequences 5′ to 3′:
SAM-II: SAM-II riboswitch RNA pseudoknot, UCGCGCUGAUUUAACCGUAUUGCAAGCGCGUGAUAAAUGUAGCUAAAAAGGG. Hit rate about 1% of about 21,000 compounds.
PreQ1: PreQ1 riboswitch RNA pseudoknot, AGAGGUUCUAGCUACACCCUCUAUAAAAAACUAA. From B. subtilis. Hit rate about 0.7% of about 24,000 compounds.

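Compounds were printed on reactive glass slides in duplicate spots, a dye-labelled oligonucleotide was laid over them, and the fluorescence left after washing was read. For the PreQ1, TPP and SAM-II riboswitches the laboratory earlier reported (doi:10.1038/s41467-019-09493-3) 1 µM RNA, 2 h, and a rule that included a mean Z-score above 3 (spot signal-to-noise against the whole library), a score well above that on a control array, and duplicate spots agreeing (coefficient of variation under 100). The data file gives only the calls; its cut-offs may differ, and compounds hitting several targets are kept. A missing hit is not proof of no binding, and a hit is not a measured affinity.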 Key: hit = hit, no hit = tested without a hit. This is an unselected part of the compounds tested. A target missing from an entry has no call listed here.

O=C([O-])c1nc(=O)[nH]c(=O)[nH]1 was scored SAM-II: no hit; PreQ1: no hit.
COc1ccc2[nH]c(CNC(C)CN3CCN(C)CC3)nc2c1 (centres undefined) was scored SAM-II: no hit; PreQ1: no hit.
COc1ccccc1CNc1ccc(N2CCOCC2)c(C(=O)O)c1 was scored SAM-II: no hit; PreQ1: no hit.
COc1cc(C)c(CNCCc2cccc(F)c2)cc1C was scored SAM-II: no hit; PreQ1: no hit.
Cc1ccc(Cl)cc1N1CCN(CC(O)COCC2COc3ccccc3O2)CC1.Cl.Cl (centres undefined) was scored SAM-II: no hit; PreQ1: no hit.
Cc1ccccc1NC1=C(C(N)=O)S(=O)(=O)c2ccccc21 was scored PreQ1: no hit.
Cc1ccc(NS(=O)(=O)c2cc(Br)cnc2N)c(Cl)c1 was scored PreQ1: no hit.
Cc1nc(N)nc(N2CCC3(CC(=O)c4ccccc4O3)C2)c1C (centres undefined) was scored SAM-II: no hit; PreQ1: no hit.
Cc1nnc(C(C)C)n1C1C[C@H]2CC[C@@H](C1)N2CC[C@H](NC(=O)C1CCC(F)(F)CC1)c1ccccc1 (some centres undefined) was scored SAM-II: no hit; PreQ1: no hit.
CCOC(=O)CCC1(C(=O)OC)C(=O)CCCCC/C=C/1C(=O)OC (centres undefined) was scored SAM-II: no hit; PreQ1: no hit.
COc1ccc(CNCc2ccccc2C(F)(F)F)cc1 was scored SAM-II: no hit; PreQ1: no hit.
CCc1cccc(CC)c1NC1=NS(=O)(=O)c2ccccc21 was scored SAM-II: no hit; PreQ1: no hit.
Cc1cnc(C(=O)N2CC[C@@H](c3sccc3C)[C@H](O)C2)cn1 was scored SAM-II: no hit; PreQ1: no hit.
COc1ccc(S(=O)(=O)[C@H]2CS(=O)(=O)C[C@@H]2NCCc2ccccc2F)cc1 was scored PreQ1: no hit.
COc1cccc(Nc2c(-c3cc(Br)ccc3O)nc3cnccn23)c1 was scored PreQ1: no hit.
CCOC(=O)c1ccc(NCc2ccncc2)cc1 was scored SAM-II: no hit; PreQ1: no hit.
COC(=O)C1=C(C)NC(C)=C(C(=O)OC(C)C)C1c1cccc2nonc12 (centres undefined) was scored SAM-II: no hit; PreQ1: no hit.
COCCNCCCn1c(C(=O)CF)c(-c2ccc(C)cc2)c2c(N)ncnc21 was scored SAM-II: no hit; PreQ1: no hit.
CS(=O)(=O)N1CCN(c2ccc(Nc3c4c(nc5ncnn35)CCC4)cc2)CC1 was scored SAM-II: no hit; PreQ1: no hit.
Cc1ccc(-c2c(NC3CCCCCCC3)c(=O)c2=O)cc1C was scored PreQ1: no hit.
O=C(Oc1cccc(NC2=NS(=O)(=O)c3ccccc32)c1)c1ccco1 was scored SAM-II: no hit; PreQ1: hit.
CCCNS(=O)(=O)Nc1ncnc(OCCOc2ncc(Br)cn2)c1-c1ccc(Br)cc1 was scored SAM-II: no hit; PreQ1: no hit.
Nc1ccc(O)c(-c2nc3ncccc3o2)c1 was scored PreQ1: no hit.
O=C(C1NCCc2[nH]cnc21)N1CCCN(Cc2ccc(F)cc2)CC1 (centres undefined) was scored SAM-II: no hit; PreQ1: no hit.
CC(C)[C@@H]1CN(C(=O)c2ccc(SCCO)cc2)C[C@H]1N(C)C was scored SAM-II: no hit; PreQ1: no hit.
CC[C@@H](C)[C@H](NC(=O)[C@H](CC1CCCCC1)NC(=O)c1ccno1)C(=O)N1CCC2(CCc3ccccc32)CC1 was scored SAM-II: no hit; PreQ1: no hit.
CCc1ccccc1NC(=O)c1cnn(C(=O)c2ccccc2)c1N was scored SAM-II: no hit; PreQ1: no hit.
COc1ccc(-c2csc(Nc3cccc(C(C)=O)c3)n2)cc1 was scored SAM-II: no hit; PreQ1: no hit.
CCOC(=O)C1CCCN(c2c(NCCc3cccc(C)c3)c(=O)c2=O)C1 (centres undefined) was scored PreQ1: no hit.
CCn1nc(C)c(-c2cc(-c3cc(C#N)n(C)c3)c(C#N)c(N)n2)c1C was scored SAM-II: no hit; PreQ1: no hit.
CC(NC1CCS(=O)CC1)c1ccccc1Cl (centres undefined) was scored SAM-II: no hit; PreQ1: no hit.
COCc1cc(C)nc(N)c1C#N was scored SAM-II: no hit; PreQ1: no hit.
COc1ccc([C@@H]2C[C@H](c3ccc(Cl)cc3)n3nc(N)nc3N2)cc1 was scored SAM-II: no hit; PreQ1: no hit.
Cc1ccccc1SCC(=O)N1CCC2(CCNCC2)CC1 was scored SAM-II: no hit; PreQ1: no hit.
CC(=O)c1ccc(OCC(O)CN2CCCC(C)C2)cc1 (centres undefined) was scored SAM-II: no hit; PreQ1: no hit.

Once more, the final 4:

compound,SAM-II,PreQ1
COCc1cc(C)nc(N)c1C#N,no hit,no hit
COc1ccc([C@@H]2C[C@H](c3ccc(Cl)cc3)n3nc(N)nc3N2)cc1,no hit,no hit
Cc1ccccc1SCC(=O)N1CCC2(CCNCC2)CC1,no hit,no hit
CC(=O)c1ccc(OCC(O)CN2CCCC(C)C2)cc1 (centres undefined),no hit,no hit

Source: the ROBIN nucleic acid binder screens (doi:10.1002/anie.202211358).